PubChem BioAssay AID1259308 | NCATS | 2017
In all, the deposit lists about 59,000 reagents; below is a part drawn at random. In the full data, about 1,510 (2.6%) were called active. 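Calls use total luciferase alone and ignore viability, so some active siRNAs may act by altering cell number.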 Unmarked entries are inactive. Reagents against one gene are numbered here. Further read-outs or replicates are left out here.

- Screen: 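Genes whose loss raises luciferase production in HEK293 cells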 (primary screen)
- Cell system: human HEK293 embryonic kidney cells stably expressing firefly luciferase (HEK-CMV-Luc2-Hygro)
- Reagent: single siRNA against human genes, 0.8 pmol siRNA per well
- Duration: 72 h
- Detection: 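Reporter luminescence and viable-cell signal on separate replicate plates, given as percent of non-targeting control and median/MAD z-scores, plus per-cell luciferase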
- Direction: total luciferase, z-score: higher = more reporter protein produced
- Active means: 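Active when the median/MAD z-score for overall luciferase is greater than 3; a gene was taken forward for validation with new siRNAs if at least two of its three siRNAs passed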
- Meaning of the calls: active = raised luciferase; inactive = no rise

total luciferase, z-score	Gene	reagent no.
2.72	RBFOX3 (RNA binding fox-1 homolog 3)	1
0.202	RBFOX3 (RNA binding fox-1 homolog 3)	2
-0.0874	RBFOX3 (RNA binding fox-1 homolog 3)	3
2.99	RBFOX3 (RNA binding fox-1 homolog 3)	4
-1.26	RBFOX3 (RNA binding fox-1 homolog 3)	5
-0.622	RBFOX3 (RNA binding fox-1 homolog 3)	6
-1.18	IL2RB (interleukin 2 receptor subunit beta)	1
1.23	IL2RB (interleukin 2 receptor subunit beta)	2
0.863	IL2RB (interleukin 2 receptor subunit beta)	3

Next part (2 carried over from the part before).
total luciferase, z-score	Gene	reagent no.
1.23	IL2RB (interleukin 2 receptor subunit beta)	2
0.863	IL2RB (interleukin 2 receptor subunit beta)	3
-0.0908	CCDC54 (coiled-coil domain containing 54)	1
-1.6	CCDC54 (coiled-coil domain containing 54)	2
0.166	CCDC54 (coiled-coil domain containing 54)	3
1.2	TRIM32 (tripartite motif containing 32)	1
-0.39	TRIM32 (tripartite motif containing 32)	2
-0.525	TRIM32 (tripartite motif containing 32)	3
0.919	FILIP1L (filamin A interacting protein 1 like)	1
1.41	FILIP1L (filamin A interacting protein 1 like)	2
-0.5	FILIP1L (filamin A interacting protein 1 like)	3
0.586	ZNF639 (zinc finger protein 639)	1
-0.306	ZNF639 (zinc finger protein 639)	2
0.366	ZNF639 (zinc finger protein 639)	3
1.43	ZSCAN25 (zinc finger and SCAN domain containing 25)	1
0.3	ZSCAN25 (zinc finger and SCAN domain containing 25)	2
-0.47	ZSCAN25 (zinc finger and SCAN domain containing 25)	3
